No constants are given. Whether binding was seen depends on the method and setting. For part of these data: Binding seen in cells or lysates may run through a third protein. Some entries that bind do so weakly or less than the wild type. Where a sequence is shown, tags or fusion partners need not be part of it.
Assays:
[1] = target: T1, His-HSCA2^G87D-Myc (without the mitochondrial targeting peptide) (Arabidopsis) (UniProt Q9LDZ0); assay: pull-down; Ni Sepharose; about 10 ug purified His-tagged HSCA2, HSCA2^G87D or SSR1 with BL21(DE3) lysates expressing SSR1, ISU1 or ISU1^T55M without His-tag, 1 hour at 4°C; anti-Myc blot; only the target purified
T1 sequence: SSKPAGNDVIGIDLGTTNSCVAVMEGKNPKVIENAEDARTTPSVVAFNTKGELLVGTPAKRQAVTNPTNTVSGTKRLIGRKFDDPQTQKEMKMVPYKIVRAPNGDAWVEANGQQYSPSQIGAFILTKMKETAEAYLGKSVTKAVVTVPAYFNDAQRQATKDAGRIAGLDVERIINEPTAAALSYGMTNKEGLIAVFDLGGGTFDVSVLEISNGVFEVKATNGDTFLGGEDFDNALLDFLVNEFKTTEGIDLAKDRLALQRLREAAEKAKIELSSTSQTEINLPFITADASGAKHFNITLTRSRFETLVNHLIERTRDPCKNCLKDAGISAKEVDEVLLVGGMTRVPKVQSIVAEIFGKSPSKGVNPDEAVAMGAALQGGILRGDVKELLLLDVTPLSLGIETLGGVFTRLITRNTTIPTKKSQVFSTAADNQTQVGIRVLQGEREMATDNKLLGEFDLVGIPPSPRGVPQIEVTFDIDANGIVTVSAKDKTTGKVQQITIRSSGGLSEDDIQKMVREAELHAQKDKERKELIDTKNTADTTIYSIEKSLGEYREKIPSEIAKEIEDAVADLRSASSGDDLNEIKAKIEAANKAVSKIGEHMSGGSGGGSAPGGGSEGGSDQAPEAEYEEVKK

[2] = target: T2, His-HSCA2-Myc (without the mitochondrial targeting peptide) (Arabidopsis) (UniProt Q9LDZ0); assay: as above
T2 sequence: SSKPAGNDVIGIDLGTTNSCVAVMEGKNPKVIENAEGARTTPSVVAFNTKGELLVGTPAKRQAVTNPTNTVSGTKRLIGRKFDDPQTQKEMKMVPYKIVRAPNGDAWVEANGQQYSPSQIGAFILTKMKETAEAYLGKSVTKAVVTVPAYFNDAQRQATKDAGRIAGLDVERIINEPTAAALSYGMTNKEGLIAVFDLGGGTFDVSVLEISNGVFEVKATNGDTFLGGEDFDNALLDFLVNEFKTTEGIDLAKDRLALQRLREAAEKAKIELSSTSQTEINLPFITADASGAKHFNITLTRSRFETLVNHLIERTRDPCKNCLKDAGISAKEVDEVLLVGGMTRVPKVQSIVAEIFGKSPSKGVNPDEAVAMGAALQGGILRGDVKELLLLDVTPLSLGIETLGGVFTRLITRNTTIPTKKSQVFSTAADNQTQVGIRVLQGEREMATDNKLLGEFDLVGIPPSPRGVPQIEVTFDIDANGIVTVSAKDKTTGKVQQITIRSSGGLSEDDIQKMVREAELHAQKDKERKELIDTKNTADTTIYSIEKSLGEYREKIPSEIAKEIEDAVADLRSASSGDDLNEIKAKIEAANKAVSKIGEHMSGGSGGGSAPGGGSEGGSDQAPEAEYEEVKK

[3] = target: T2, His-HSCA2-Myc (without the mitochondrial targeting peptide) (Arabidopsis); assay: native gel or EMSA; BN-PAGE (5%-13%) then SDS-PAGE in the second dimension; about 10 ug of each protein in 200 uL, 4°C one hour; 50 mM Tris-HCl pH 7.4, 50 mM NaCl, 10 mM KCl, 0.1% Tween-20, 100 uM ATP; anti-Myc blot; both purified
[4] = target: T1, His-HSCA2^G87D-Myc (without the mitochondrial targeting peptide) (Arabidopsis); assay: pull-down; Ni Sepharose; purified His-tagged baits with purified tag-excised preys (about 10 ug each in 200 uL), with or without SSR1-Myc; 50 mM Tris-HCl pH 7.4, 50 mM NaCl, 10 mM KCl, 0.1% Tween-20; 4°C; anti-Myc blot; both purified
[5] = target: T2, His-HSCA2-Myc (without the mitochondrial targeting peptide) (Arabidopsis); assay: as above
[6] = target: T2, His-HSCA2-Myc (without the mitochondrial targeting peptide) (Arabidopsis); assay: pull-down; Ni-NTA; His-tagged HSCA2 expressed in E. coli as bait; Myc-tagged ISU1^T55M variants of the LPPVK motif expressed in E. coli

B1: ISU1-Myc expressed without His-tag, in E. coli lysate (without the mitochondrial targeting peptide) (protein, UniProt O49627 51-167)
chain: PNVGTGLVGAPACGDVMKLQIKVDEKTGQIVDARFKTFGCGSAIASSSVATEWVKGKAMEDVLTIKNTEIAKHLSLPPVKLHCSMLAEDAIKAAVKDYKEKRVKTNGAAAAGETTQA
binding [1]: binds
binding [2]: binds

B2: ISU1^T55M-Myc expressed without His-tag, in E. coli lysate (without the mitochondrial targeting peptide) (protein, UniProt O49627 51-167)
chain: PNVGMGLVGAPACGDVMKLQIKVDEKTGQIVDARFKTFGCGSAIASSSVATEWVKGKAMEDVLTIKNTEIAKHLSLPPVKLHCSMLAEDAIKAAVKDYKEKRVKTNGAAAAGETTQA
binding [2]: binds

B3: ISU1-Myc, purified, His-tag excised (without the mitochondrial targeting peptide) (protein, UniProt O49627 51-167)
chain: PNVGTGLVGAPACGDVMKLQIKVDEKTGQIVDARFKTFGCGSAIASSSVATEWVKGKAMEDVLTIKNTEIAKHLSLPPVKLHCSMLAEDAIKAAVKDYKEKRVKTNGAAAAGETTQA
binding [3]: binds
binding [4]: binds
binding [5]: binds

B4: Myc-tagged ISU1^T55M of the LPPVK mutant pull-down (Fig 3A) (protein, UniProt O49627 51-167)
chain: PNVGMGLVGAPACGDVMKLQIKVDEKTGQIVDARFKTFGCGSAIASSSVATEWVKGKAMEDVLTIKNTEIAKHLSLPPVKLHCSMLAEDAIKAAVKDYKEKRVKTNGAAAAGETTQA
binding [6]: binds

B5: Myc-tagged ISU1^T55ML126A (protein, UniProt O49627 51-167)
chain: PNVGMGLVGAPACGDVMKLQIKVDEKTGQIVDARFKTFGCGSAIASSSVATEWVKGKAMEDVLTIKNTEIAKHLSAPPVKLHCSMLAEDAIKAAVKDYKEKRVKTNGAAAAGETTQA
binding [6]: binds

B6: Myc-tagged ISU1^T55MP127A (protein, UniProt O49627 51-167)
chain: PNVGMGLVGAPACGDVMKLQIKVDEKTGQIVDARFKTFGCGSAIASSSVATEWVKGKAMEDVLTIKNTEIAKHLSLAPVKLHCSMLAEDAIKAAVKDYKEKRVKTNGAAAAGETTQA
binding [6]: binds

B7: Myc-tagged ISU1^T55MP128S (protein, UniProt O49627 51-167)
chain: PNVGMGLVGAPACGDVMKLQIKVDEKTGQIVDARFKTFGCGSAIASSSVATEWVKGKAMEDVLTIKNTEIAKHLSLPSVKLHCSMLAEDAIKAAVKDYKEKRVKTNGAAAAGETTQA
binding [6]: binds

B8: Myc-tagged ISU1^T55MAAA (PVK of the LPPVK motif to AAA) (protein, UniProt O49627 51-167)
chain: PNVGMGLVGAPACGDVMKLQIKVDEKTGQIVDARFKTFGCGSAIASSSVATEWVKGKAMEDVLTIKNTEIAKHLSLPAAALHCSMLAEDAIKAAVKDYKEKRVKTNGAAAAGETTQA
binding [6]: binds weakly

B9: ISU1^T55M-Myc, purified, His-tag excised (without the mitochondrial targeting peptide) (protein, UniProt O49627 51-167)
chain: PNVGMGLVGAPACGDVMKLQIKVDEKTGQIVDARFKTFGCGSAIASSSVATEWVKGKAMEDVLTIKNTEIAKHLSLPPVKLHCSMLAEDAIKAAVKDYKEKRVKTNGAAAAGETTQA
binding [5]: binds

— publication PMC11835332
